Experimental data from PubChem BioAssay AID2391 (Southern Research Specialized Biocontainment Screening …, 2010).
About 410 (0.13%) of roughly 310,000 compounds were called active. The source calls these results inconclusive, neither active nor inactive. The rule behind the calls is not given here.

Assay: inhibition of RSV-induced cytopathic effect – HEp-2 cells, primary 10 µM value included (AID 2391)
Conditions: at 10 µM, stronger effect = higher value

Q: For COc1cccc(C(=O)N(c2cc(C)cc(C)c2)C2CCN(C(=O)OC(C)(C)C)CC2)c1, which CPE inhibition is on record?
A: inconclusive: 25.6%
